# Data reported in patent publication US9200171B2, “AZO compound and ink containing the compound” (MITSUBISHI CHEMICAL CORPORATION, priority 2011, dated 2015).
# Some of these results come from one statement about several compounds together.
# Experiment: Solubility of solvent in water at 25° C.
# Type: physicochemical
# Settings: single solvent
# Procedure: Pure water (30 g) and a solvent (8 g) were introduced into 110 ml of a vial, which was shaken 200 times/minute for 4 hours in a constant-temperature tank at 25° C. The mixture after shaking was centrifuged (6000×g, for 5 minutes), the aqueous layer was sampled, and the concentration of the solvent dissolved was quantitatively determined by gas chromatography. Since Isopar was not a single compound but a mixture, the quantitative determination was performed as TOC (total organic carbon), which was converted into solubility according to the following equation, the average molecular weight being shown as Mw. Solubility [mg/L]=TOC [mg/L]×(14Mw/{12(Mw−2)}
# In the case of a mixed solvent in which two or more kinds of solvents were mixed, the solubility in water was determined by multiplying the solubility of each solvent in water by each molar fraction and summing up the resulting products.
# In the case where the solvent species used is unclear, the solubility in water can be measured by the above method through identification of the solvent species by mass spectroscopy or the like.
substance,measurement,value
n-decaline,solubility in water,≤ 1 µg/mL
